{
  "sequences": {"note": "Amino acid sequences for entries named in this document (tags omitted). A change or cut given only in a name is not applied to a line headed by its entry.", "UniProt Q96GF1": "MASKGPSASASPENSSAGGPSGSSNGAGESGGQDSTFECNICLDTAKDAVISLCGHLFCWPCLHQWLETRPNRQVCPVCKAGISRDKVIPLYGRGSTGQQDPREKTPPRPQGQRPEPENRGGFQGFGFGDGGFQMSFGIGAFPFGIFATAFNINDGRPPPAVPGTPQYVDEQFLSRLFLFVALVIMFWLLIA", "UniProt Q15293": "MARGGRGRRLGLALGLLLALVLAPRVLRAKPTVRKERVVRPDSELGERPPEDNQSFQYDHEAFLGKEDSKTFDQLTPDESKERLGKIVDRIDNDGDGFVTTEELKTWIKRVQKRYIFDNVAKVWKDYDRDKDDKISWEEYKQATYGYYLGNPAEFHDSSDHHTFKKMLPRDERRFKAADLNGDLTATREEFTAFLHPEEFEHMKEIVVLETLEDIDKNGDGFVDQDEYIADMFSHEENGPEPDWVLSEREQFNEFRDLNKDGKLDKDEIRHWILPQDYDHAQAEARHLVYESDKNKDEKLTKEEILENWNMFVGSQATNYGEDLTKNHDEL", "UniProt Q5TC82": "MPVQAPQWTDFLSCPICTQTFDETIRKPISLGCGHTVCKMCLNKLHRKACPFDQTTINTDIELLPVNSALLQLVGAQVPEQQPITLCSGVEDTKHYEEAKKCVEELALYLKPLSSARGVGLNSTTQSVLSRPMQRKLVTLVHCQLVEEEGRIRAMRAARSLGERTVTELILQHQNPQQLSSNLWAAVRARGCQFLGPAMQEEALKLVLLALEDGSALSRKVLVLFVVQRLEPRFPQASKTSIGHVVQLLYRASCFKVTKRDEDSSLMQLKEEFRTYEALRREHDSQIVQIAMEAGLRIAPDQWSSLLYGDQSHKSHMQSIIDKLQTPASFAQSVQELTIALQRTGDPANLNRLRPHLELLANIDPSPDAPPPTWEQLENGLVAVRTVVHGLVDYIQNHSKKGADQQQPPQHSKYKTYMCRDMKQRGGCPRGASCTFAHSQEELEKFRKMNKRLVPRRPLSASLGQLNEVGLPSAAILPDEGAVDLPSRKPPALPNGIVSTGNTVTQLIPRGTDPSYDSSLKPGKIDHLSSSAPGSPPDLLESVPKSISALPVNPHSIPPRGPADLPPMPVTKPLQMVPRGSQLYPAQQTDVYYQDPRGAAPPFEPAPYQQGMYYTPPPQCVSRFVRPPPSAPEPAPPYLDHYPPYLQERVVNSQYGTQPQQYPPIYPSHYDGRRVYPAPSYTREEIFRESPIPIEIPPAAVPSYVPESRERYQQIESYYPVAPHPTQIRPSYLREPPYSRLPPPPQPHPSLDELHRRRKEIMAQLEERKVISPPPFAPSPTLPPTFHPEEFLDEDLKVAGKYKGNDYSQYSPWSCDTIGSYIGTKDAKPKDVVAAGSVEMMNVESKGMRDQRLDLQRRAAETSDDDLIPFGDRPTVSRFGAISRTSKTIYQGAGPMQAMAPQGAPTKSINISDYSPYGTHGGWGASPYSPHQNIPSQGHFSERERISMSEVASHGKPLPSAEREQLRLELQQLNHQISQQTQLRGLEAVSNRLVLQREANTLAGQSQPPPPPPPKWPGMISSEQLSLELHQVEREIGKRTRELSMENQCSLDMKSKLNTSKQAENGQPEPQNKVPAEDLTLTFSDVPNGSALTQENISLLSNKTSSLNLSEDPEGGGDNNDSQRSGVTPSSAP", "UniProt Q969X0": "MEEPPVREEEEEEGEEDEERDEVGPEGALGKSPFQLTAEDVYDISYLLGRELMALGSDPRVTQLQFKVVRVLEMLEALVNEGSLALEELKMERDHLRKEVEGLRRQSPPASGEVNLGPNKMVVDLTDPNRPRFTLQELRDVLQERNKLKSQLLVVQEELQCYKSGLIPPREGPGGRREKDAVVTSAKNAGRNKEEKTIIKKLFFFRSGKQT", "UniProt Q9BWH6": "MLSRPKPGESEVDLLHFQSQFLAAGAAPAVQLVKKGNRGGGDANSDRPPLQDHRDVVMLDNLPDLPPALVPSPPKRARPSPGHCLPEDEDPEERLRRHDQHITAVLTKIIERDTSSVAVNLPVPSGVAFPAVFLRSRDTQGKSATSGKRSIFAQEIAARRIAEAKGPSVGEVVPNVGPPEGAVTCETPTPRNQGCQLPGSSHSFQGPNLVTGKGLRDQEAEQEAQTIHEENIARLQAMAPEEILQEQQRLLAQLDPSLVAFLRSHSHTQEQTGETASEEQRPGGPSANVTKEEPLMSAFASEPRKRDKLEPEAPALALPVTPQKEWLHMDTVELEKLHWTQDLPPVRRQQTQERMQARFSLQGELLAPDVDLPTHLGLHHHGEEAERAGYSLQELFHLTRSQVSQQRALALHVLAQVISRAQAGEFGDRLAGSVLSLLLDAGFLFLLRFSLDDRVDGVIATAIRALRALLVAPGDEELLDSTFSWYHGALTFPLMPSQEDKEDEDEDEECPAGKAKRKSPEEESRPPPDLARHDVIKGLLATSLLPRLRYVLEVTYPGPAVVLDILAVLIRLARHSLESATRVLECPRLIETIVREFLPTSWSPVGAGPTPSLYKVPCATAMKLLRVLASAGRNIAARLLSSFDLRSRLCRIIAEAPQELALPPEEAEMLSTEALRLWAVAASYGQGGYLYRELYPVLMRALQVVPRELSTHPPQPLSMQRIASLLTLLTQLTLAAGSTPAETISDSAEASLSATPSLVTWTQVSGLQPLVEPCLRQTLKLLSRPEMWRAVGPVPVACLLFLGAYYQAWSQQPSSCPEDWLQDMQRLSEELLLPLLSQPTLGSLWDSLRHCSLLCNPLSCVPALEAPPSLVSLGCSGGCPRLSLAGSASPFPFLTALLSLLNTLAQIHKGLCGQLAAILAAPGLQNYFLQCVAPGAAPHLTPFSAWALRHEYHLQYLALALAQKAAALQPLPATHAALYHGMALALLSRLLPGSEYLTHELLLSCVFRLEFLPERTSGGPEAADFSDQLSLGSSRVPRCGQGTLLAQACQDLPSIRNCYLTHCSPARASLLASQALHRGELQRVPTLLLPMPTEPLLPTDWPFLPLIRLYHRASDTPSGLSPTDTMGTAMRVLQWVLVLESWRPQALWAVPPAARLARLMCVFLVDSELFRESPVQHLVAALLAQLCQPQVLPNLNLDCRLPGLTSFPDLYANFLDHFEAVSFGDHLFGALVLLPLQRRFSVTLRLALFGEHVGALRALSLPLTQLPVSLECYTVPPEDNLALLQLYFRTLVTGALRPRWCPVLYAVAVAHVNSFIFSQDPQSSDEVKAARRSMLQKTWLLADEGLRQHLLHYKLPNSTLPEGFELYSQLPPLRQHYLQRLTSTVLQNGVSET", "UniProt Q96HR9": "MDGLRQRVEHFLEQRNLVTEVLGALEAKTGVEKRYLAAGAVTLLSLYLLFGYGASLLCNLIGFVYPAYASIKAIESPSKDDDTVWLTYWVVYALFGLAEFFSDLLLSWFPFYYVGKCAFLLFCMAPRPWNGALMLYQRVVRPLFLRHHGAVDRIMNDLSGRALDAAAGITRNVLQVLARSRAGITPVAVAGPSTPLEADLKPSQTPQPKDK", "UniProt Q96DX4": "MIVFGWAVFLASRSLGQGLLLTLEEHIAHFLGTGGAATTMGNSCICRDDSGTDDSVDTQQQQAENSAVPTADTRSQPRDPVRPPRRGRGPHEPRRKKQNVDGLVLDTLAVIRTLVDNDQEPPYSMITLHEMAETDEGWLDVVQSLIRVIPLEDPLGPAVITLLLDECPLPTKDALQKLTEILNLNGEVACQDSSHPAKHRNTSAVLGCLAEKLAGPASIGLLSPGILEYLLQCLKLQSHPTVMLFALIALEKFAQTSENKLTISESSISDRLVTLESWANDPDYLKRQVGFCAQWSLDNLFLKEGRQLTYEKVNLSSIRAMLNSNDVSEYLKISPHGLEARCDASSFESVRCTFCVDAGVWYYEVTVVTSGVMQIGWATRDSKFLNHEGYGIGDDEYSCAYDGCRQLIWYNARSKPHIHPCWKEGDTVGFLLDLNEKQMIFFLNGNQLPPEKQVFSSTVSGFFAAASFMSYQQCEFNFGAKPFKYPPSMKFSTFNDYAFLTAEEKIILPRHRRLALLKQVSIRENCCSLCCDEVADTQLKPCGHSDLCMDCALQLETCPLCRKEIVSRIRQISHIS", "UniProt Q7LG56, whole entry": "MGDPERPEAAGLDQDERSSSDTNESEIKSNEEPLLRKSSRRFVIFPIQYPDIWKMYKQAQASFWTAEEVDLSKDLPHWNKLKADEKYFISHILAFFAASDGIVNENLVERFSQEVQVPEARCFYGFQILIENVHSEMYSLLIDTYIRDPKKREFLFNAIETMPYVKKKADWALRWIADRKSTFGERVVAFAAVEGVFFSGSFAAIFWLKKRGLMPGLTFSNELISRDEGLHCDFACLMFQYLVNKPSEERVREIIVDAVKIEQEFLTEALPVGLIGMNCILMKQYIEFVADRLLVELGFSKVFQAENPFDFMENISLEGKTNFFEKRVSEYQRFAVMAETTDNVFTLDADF", "UniProt O75818": "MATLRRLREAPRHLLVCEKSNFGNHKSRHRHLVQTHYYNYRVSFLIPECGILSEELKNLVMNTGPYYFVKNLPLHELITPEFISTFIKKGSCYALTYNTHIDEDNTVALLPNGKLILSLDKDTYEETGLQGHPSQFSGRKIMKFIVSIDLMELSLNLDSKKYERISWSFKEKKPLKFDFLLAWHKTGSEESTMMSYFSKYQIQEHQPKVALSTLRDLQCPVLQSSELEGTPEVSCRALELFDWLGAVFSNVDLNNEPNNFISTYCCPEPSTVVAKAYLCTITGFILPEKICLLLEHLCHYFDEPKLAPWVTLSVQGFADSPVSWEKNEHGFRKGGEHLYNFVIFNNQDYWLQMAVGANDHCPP", "UniProt Q13950, whole entry": "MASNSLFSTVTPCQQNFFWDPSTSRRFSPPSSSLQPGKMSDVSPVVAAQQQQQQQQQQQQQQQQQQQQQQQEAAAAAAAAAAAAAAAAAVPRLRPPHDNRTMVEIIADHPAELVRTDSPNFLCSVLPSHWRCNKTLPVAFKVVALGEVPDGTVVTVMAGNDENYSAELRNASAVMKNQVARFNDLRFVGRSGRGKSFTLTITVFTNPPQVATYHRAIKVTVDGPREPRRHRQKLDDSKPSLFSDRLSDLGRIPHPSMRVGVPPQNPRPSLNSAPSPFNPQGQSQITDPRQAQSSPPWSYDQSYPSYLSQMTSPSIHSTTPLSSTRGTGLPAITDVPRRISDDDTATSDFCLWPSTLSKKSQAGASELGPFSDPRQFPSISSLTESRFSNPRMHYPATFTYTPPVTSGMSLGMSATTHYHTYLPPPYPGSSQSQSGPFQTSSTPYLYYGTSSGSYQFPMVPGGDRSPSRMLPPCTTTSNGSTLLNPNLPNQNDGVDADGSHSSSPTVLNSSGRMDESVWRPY", "UniProt Q9NQG5": "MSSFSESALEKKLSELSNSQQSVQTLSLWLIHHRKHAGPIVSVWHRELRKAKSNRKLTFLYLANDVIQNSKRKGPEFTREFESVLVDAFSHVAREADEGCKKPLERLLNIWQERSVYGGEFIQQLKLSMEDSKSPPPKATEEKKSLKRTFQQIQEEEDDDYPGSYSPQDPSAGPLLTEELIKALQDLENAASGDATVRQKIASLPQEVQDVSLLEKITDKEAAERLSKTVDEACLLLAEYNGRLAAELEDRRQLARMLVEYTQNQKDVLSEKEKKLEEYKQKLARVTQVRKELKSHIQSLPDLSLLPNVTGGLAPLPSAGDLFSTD", "UniProt Q9NWS8": "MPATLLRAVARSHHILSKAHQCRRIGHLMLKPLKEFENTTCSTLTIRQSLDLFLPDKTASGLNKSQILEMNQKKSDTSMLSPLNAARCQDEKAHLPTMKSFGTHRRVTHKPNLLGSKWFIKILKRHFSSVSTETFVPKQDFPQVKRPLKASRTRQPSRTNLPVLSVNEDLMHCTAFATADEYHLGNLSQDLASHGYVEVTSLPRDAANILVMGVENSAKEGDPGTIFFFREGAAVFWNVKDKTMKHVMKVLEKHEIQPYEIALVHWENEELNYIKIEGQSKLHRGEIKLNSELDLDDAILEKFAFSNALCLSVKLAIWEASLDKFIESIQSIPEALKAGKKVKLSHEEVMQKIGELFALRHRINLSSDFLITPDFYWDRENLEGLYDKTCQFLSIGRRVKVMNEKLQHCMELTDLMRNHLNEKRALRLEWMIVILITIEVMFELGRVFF", "UniProt Q9NPQ8": "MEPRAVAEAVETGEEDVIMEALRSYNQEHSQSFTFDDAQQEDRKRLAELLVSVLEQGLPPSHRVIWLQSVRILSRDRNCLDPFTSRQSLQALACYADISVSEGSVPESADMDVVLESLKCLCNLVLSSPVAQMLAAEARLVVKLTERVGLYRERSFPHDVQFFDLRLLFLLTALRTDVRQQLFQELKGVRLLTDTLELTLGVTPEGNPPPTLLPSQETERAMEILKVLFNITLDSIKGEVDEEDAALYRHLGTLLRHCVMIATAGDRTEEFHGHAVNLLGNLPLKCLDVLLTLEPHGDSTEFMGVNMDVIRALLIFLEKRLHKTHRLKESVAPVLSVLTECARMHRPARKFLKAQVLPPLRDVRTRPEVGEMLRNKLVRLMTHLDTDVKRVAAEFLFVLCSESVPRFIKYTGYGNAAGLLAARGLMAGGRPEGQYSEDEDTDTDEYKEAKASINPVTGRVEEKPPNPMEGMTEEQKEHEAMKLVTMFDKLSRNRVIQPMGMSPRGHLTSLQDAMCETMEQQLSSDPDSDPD"},
  "source": "the supplement of paper PMC7666118",
  "note": "The other results are listed elsewhere or left out.",
  "data": [
    {"compound": "COc1ccc(Cn2ccc3ccc(C(=O)NO)cc32)cc1", "test": "dose-dependent thermal stabilisation call (2D-TPP, DLPTP, 10% FDR) (binary (1 = stabilised)); higher = stabilised by the compound", "settings": "system: HL-60 intact cells; concentration range 0.04-10 µM", "values": [
      {"target": "RNF185 (UniProt Q96GF1)", "dose-dependent thermal stabilisation call": "inactive: 0"},
      {"target": "RPL36 (UniProt Q9Y3U8)", "dose-dependent thermal stabilisation call": "inactive: 0"},
      {"target": "RTN3 (UniProt O95197)", "dose-dependent thermal stabilisation call": "inactive: 0"},
      {"target": "RRS1 (UniProt Q15050)", "dose-dependent thermal stabilisation call": "inactive: 0"},
      {"target": "RCC2 (UniProt Q9P258)", "dose-dependent thermal stabilisation call": "inactive: 0"},
      {"target": "RPL8 (UniProt P62917)", "dose-dependent thermal stabilisation call": "inactive: 0"},
      {"target": "RCN1 (UniProt Q15293)", "dose-dependent thermal stabilisation call": "inactive: 0"},
      {"target": "RWDD4A (UniProt Q6NW29)", "dose-dependent thermal stabilisation call": "inactive: 0"},
      {"target": "RPL6 (UniProt Q02878)", "dose-dependent thermal stabilisation call": "inactive: 0"},
      {"target": "RFK (UniProt Q969G6)", "dose-dependent thermal stabilisation call": "inactive: 0"},
      {"target": "RC3H1 (UniProt Q5TC82)", "dose-dependent thermal stabilisation call": "inactive: 0"},
      {"target": "RPS18 (UniProt P62269)", "dose-dependent thermal stabilisation call": "inactive: 0"},
      {"target": "RNPS1 (UniProt Q15287)", "dose-dependent thermal stabilisation call": "inactive: 0"},
      {"target": "RILPL2 (UniProt Q969X0)", "dose-dependent thermal stabilisation call": "inactive: 0"},
      {"target": "RTN4 (UniProt Q9NQC3)", "dose-dependent thermal stabilisation call": "inactive: 0"},
      {"target": "RPAP1 (UniProt Q9BWH6)", "dose-dependent thermal stabilisation call": "inactive: 0"},
      {"target": "RPN2 (UniProt P04844)", "dose-dependent thermal stabilisation call": "inactive: 0"},
      {"target": "RPS13 (UniProt P62277)", "dose-dependent thermal stabilisation call": "inactive: 0"},
      {"target": "RTN2 (UniProt O75298)", "dose-dependent thermal stabilisation call": "inactive: 0"},
      {"target": "RELA (UniProt Q04206)", "dose-dependent thermal stabilisation call": "inactive: 0"},
      {"target": "RWDD1 (UniProt Q9H446)", "dose-dependent thermal stabilisation call": "inactive: 0"},
      {"target": "RPGR (UniProt Q92834)", "dose-dependent thermal stabilisation call": "inactive: 0"},
      {"target": "RNF31 (UniProt Q96EP0)", "dose-dependent thermal stabilisation call": "inactive: 0"},
      {"target": "REEP6 (UniProt Q96HR9)", "dose-dependent thermal stabilisation call": "inactive: 0"},
      {"target": "RSPRY1 (UniProt Q96DX4)", "dose-dependent thermal stabilisation call": "inactive: 0"},
      {"target": "RNF5 (UniProt Q99942)", "dose-dependent thermal stabilisation call": "inactive: 0"},
      {"target": "RPL10A (UniProt P62906)", "dose-dependent thermal stabilisation call": "inactive: 0"},
      {"target": "RPRD1A (UniProt Q96P16)", "dose-dependent thermal stabilisation call": "inactive: 0"},
      {"target": "RRM2B (UniProt Q7LG56)", "dose-dependent thermal stabilisation call": "inactive: 0"},
      {"target": "RPP40 (UniProt O75818)", "dose-dependent thermal stabilisation call": "inactive: 0"},
      {"target": "RUNX2 (UniProt Q13950)", "dose-dependent thermal stabilisation call": "inactive: 0"},
      {"target": "RNASEH2C (UniProt Q8TDP1)", "dose-dependent thermal stabilisation call": "inactive: 0"},
      {"target": "RNF160 (UniProt O94822)", "dose-dependent thermal stabilisation call": "inactive: 0"},
      {"target": "RPRD1B (UniProt Q9NQG5)", "dose-dependent thermal stabilisation call": "inactive: 0"},
      {"target": "RMND1 (UniProt Q9NWS8)", "dose-dependent thermal stabilisation call": "inactive: 0"},
      {"target": "RIC8A (UniProt Q9NPQ8)", "dose-dependent thermal stabilisation call": "inactive: 0"},
      {"target": "RGS10 (UniProt O43665)", "dose-dependent thermal stabilisation call": "inactive: 0"}
    ]}
  ]
}
